Measured values: article PMC9703636
Numbering of substitutions follows the chain as printed. No constants are given. Whether binding was seen depends on the method and setting. For part of these data: Binding calls can cover weak binding; strength is not graded here.

Legend:
Assay in all cases: two-hybrid; AH109 yeast; baits in pGBT9, prey OCA7 in pGAD424; growth on SD -L-W-H shows interaction, growth with 3-amino-1,2,4-triazole stronger interaction; 72 h at 30 °C
[1] = target: T1, AP1M1 in pGBT9, yeast two-hybrid bait (human) (UniProt Q9BXS5)
T1 sequence: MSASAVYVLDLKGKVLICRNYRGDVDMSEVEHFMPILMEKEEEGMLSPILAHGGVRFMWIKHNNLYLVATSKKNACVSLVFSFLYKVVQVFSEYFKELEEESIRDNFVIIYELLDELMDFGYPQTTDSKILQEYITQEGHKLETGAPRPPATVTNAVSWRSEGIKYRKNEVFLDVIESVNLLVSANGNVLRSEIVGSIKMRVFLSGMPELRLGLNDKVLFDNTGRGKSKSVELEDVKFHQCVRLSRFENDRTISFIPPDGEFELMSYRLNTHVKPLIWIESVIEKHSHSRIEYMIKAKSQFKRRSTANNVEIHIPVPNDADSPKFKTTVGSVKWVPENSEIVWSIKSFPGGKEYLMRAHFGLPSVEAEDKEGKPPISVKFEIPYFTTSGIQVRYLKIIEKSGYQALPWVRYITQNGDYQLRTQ

[2] = target: T2, Rab32 Q85L (constitutively active, GTP locked) in pGBT9 (UniProt Q13637)
T2 sequence: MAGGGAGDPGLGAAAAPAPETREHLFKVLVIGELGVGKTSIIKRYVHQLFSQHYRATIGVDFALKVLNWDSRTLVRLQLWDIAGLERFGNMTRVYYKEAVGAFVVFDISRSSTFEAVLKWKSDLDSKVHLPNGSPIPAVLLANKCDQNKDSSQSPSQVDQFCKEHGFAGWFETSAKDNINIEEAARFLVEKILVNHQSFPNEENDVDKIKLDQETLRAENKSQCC

[3] = target: T3, Rab32 Q85L, Y95A (switch 2 mutant) in pGBT9 (UniProt Q13637)
T3 sequence: T2 sequence with Y95A

[4] = target: T4, Rab32 WT in pGBT9, yeast two-hybrid bait (UniProt Q13637)
T4 sequence: T2 sequence with L85Q

[5] = target: T5, Rab38 WT in pGBT9, yeast two-hybrid bait (UniProt P57729)
T5 sequence: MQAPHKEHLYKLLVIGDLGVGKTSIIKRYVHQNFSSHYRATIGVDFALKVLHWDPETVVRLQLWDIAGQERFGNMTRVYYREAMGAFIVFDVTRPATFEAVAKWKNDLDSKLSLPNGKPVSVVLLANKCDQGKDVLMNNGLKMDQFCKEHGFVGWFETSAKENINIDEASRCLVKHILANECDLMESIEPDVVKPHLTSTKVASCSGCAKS

[6] = target: T6, RabIF in pGBT9, yeast two-hybrid bait (human) (UniProt P47224)
T6 sequence: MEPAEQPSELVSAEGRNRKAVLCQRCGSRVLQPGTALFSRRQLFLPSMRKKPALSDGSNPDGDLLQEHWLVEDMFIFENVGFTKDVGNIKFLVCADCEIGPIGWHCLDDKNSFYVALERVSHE

“OCA7 (oculocutaneous albinism type 7 protein) in pGAD424, yeast two-hybrid prey (human)” was tested, and the binding [1] was “no binding”, the binding [2] was “binds” and the binding [3] was “no binding”. For the same substance, the binding [4] was “binds”, the binding [5] was “binds” and the binding [6] was “no binding”.
